From patent publication US7276519B2, “Thieno[3,2-b]pyridine-6-carbonitriles and thieno[2,3-b]pyridine-5-carbonitriles as protein kinase inhibitors” (Wyeth, priority 2002, dated 2007)

Test system: Rat2 fibroblasts stably transformed with v-Src/Hu c-Src fusion gene
Assay: Anchorage independent Src-transformed fibroblast proliferation assay
Type: cell-based, rat
Conditions: read-out: Src Cells IC50 μM or % inhib at 10 μM (IC50 values); Table 3

COc1cc(Nc2c(C#N)cnc3cc(-c4ccc(CN5C[C@H](C)NC[C@H]5C)cc4)sc23)c(Cl)cc1Cl [Example 114, 7-[(2,4-dichloro-5-methoxyphenyl)amino]-2-(4{[(2R,5S)-2,5-dimethylpiperazin-1-I]methyl}phenyl)thieno[3,2-b]pyridine-6-carbonitrile]
IC50: 598 nM and 245 nM

For part of its entries the source gives two or more results. The other results are left out here. There may be further records. The values listed for one entry differ, and nothing given here explains why; some may be repeats, others may stem from another dose, organism or construct than stated.
